According to PubChem BioAssay AID493014 (National Center for Advancing Translational Sciences (NCATS), 2011):
The list shows a part of the results. Further columns of the screen follow, without active or inactive calls. The list favours compounds with an active or inconclusive main result. Words in brackets tell the shape of the fitted curve; partial curves, single points and poor fits give uncertain potencies.

Test: qHTS Assay to Find Inhibitors of Chronic Active B-Cell Receptor Signaling
Conditions: ABC-DLBCL IkBa-CBG/CBR reporter, luminescence ratio (green luciferase fused to IkBa over red control in TMD8 lymphoma cells), 4 h
In short: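 Concentration-response series (up to 46 uM) were applied to TMD8 dual-reporter cells for 4 h at 37C with doxycycline. Green/red ratio, after filter-overlap correction, defined %Activity; red signal alone was normalised to basal cells and zero luminescence.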

[1] = measured here: CBR red luminescence, cell number
[2] = measured here: IkBa-CBG green luminescence

Cc1ccc(NC(=O)C2=C(O)c3sccc3N(C)S2(=O)=O)cc1
AC50 [1]: 16.4 µM [falling, partial curve]

O=C(O)CCCC(=O)Nc1ccccc1SCCS(=O)(=O)c1ccc(Cl)cc1
AC50 [1]: 0.891 µM [falling, partial curve, poor fit]

COc1ccc(C(=O)Nc2ccccc2C(=O)Nc2cc(C)ccn2)cc1
AC50 [1]: 14.1 µM [falling, partial curve, poor fit]

O=C(C1CCCCC1)N1CCN(c2ncccn2)CC1
AC50 [1]: 4.11 µM [rising, full curve, poor fit]

C/C(=N/NC(=O)c1ccccn1)c1ccncc1
AC50 [1]: 10 µM [falling, partial curve, poor fit]

Cc1cc(C)cc(NC(=O)c2ccc(CSc3nnnn3C)cc2)c1
AC50 [1]: 22.4 µM [falling, single point]

Cc1nnsc1C(=O)NNC(=O)Nc1ccccc1
AC50 [1]: 12.6 µM [falling, partial curve]

Cc1ccc(C2=NN(C(=O)CN3CCN(C4CCS(=O)(=O)C4)CC3)C(c3ccco3)C2)cc1 (stereo not drawn)
AC50 [1]: 20.6 µM [falling, single point]

COc1cccc(C(=O)NC(=S)Nc2ccc3[nH]c(=O)[nH]c3c2)c1
AC50 [1]: 7.08 µM [falling, partial curve, poor fit]

Cc1cccc(OCC(O)CN2C(C)(C)CC(O)CC2(C)C)c1C (stereo not drawn)
AC50 [1]: 3.26 µM [rising, single point]

Cc1ccc(CNc2nc3ccc(C)cc3n3cnnc23)cc1
AC50 [1]: 0.731 µM [rising, full curve]

Nc1nc(SCc2ccc(F)cc2)ns1
AC50 [1]: 3.16 µM [rising, full curve, poor fit]

CCOc1ccccc1N(CC(=O)Nc1cccnc1)S(C)(=O)=O
AC50 [1]: 20.6 µM [rising, partial curve, poor fit]

CCC(C)NC(=O)c1c(N)n(/N=C/c2cccnc2)c2nc3ccccc3nc12 (stereo not drawn)
AC50 [1]: 3.98 µM [falling, partial curve]

O=C(Nc1ccc2c(c1)CCC2)c1ccccc1F
AC50 [1]: 16.4 µM [falling, single point]

COc1ccc(Br)cc1CN(C)CC(=O)Nc1cccc(S(N)(=O)=O)c1
AC50 [1]: 22.4 µM [rising, single point]

COc1cccc(CNC(=O)CCCc2c[nH]c3ccccc23)c1
AC50 [1]: 11.2 µM [falling, partial curve]

COc1ccc(-c2nsc(SCC(=O)Nc3cc(C)on3)n2)cc1
AC50 [1]: 29.1 µM [falling, single point]

CCC(CO)Oc1cc(NCc2cccc(F)c2)c2ncn(C(C)C)c2c1 (stereo not drawn)
AC50 [1]: 20.6 µM [falling, partial curve, poor fit]

N#Cc1cc2ccccc2nc1N
AC50 [1]: 6.31 µM [falling, partial curve, poor fit]

Cc1cc(C)c(O)c(-c2n[nH]c3c2C(c2cccc(O)c2)N(Cc2ccco2)C3=O)c1 (stereo not drawn)
AC50 [1]: 25.1 µM [falling, single point]

O=C(Nc1cccnc1)c1ccc([N+](=O)[O-])o1
AC50 [1]: 35.5 µM [falling, single point]

Cc1ccc(S(=O)(=O)N(C)C)cc1NC(=O)CSc1ncc(C(F)(F)F)cc1Cl
AC50 [1]: 23.1 µM [falling, partial curve]

COc1c(Br)cc(C(N)=O)cc1OCc1ccccc1
AC50 [1]: 9.2 µM [rising, partial curve, poor fit]

Cc1cc(=O)n(-c2ccc3ccccc3n2)[nH]1
AC50 [1]: 25.9 µM [falling, single point]

O=C(CCCCCn1c(=O)[nH]c2ccsc2c1=O)NCc1ccc(F)cc1
AC50 [1]: 29.1 µM [falling, single point]

COc1ccc(C2/C=C\CN(C(=O)Nc3ccc(C(F)(F)F)cc3)CC(=O)N2Cc2ccc(F)cc2)cc1 (stereo not drawn)
AC50 [1]: 7.08 µM [rising, partial curve]

C/C(N)=C(/C#N)C(=O)COC(=O)c1cc(-c2cccc(Br)c2)nc2ccccc12
AC50 [1]: 32.6 µM [falling, partial curve, poor fit]

O=C(COC(=O)CCc1nc2ccccc2c(=O)[nH]1)Nc1ccc(OC(F)(F)F)cc1
AC50 [1]: 20.6 µM [rising, single point]

Cc1cnc(C(=O)N2CCCC(C(=O)c3ccc(C(F)(F)F)cc3)C2)cn1 (stereo not drawn)
AC50 [1]: 2.51 µM [falling, full curve]

Cc1nnc(-c2cnn(C)c2N)n1CCCN(C)C
AC50 [1]: 20 µM [rising, partial curve, poor fit]

O=C(Nc1ccccc1)C1=C[C@H](c2coc3ccccc3c2=O)C[C@H](OCc2ccc(CO)cc2)O1
AC50 [1]: 35.5 µM [falling, single point]
AC50 [2]: 14.1 µM [rising, partial curve, poor fit]

O=C(Cc1ccccc1)Nc1cccc(N2CCCC2)c1
AC50 [1]: 29.1 µM [rising, single point]

O=C(NCc1ccccc1)c1c[nH]c2cc3c(cc2c1=O)OCCO3
AC50 [1]: 18.4 µM [falling, single point]

CCn1cnc2cc(NCc3ccncc3)ccc21
AC50 [1]: 29.1 µM [rising, single point]

CCOc1ccc(NC(=O)NCCCN2CCCC2)cc1
AC50 [1]: 9.2 µM [falling, partial curve, poor fit]

O=C(NCCN1CCOCC1)c1ccccc1N1C(=O)[C@@H]2Cc3c([nH]c4ccccc34)C(c3ccccc3)N2C1=O (stereo partly drawn)
AC50 [1]: 0.891 µM [falling, full curve, poor fit]

O=C(Nc1ccc2sccc2c1)c1cccc(N2C(=O)CCC2=O)c1
AC50 [1]: 11.2 µM [falling, partial curve, poor fit]

CCOc1ccc(S(=O)(=O)NCc2ccccn2)cc1NC(=O)c1ccccc1F
AC50 [1]: 2.24 µM [rising, full curve]
AC50 [2]: 2.82 µM [falling, full curve, poor fit]

Cn1c(NNC(=O)c2ccccc2F)cc(=O)n(C)c1=O
AC50 [1]: 35.5 µM [falling, single point]

CCN(CC)c1ccc(NC2=C(Cl)C(=O)c3ccccc3C2=O)cc1
AC50 [1]: 29.1 µM [falling, single point]
